The list shows only some results of the screen, not a fair sample: it gathers tests that were run many times, whatever their T/C, doses with no T/C, and many T/C values between a quarter and a half above the control. Other doses and runs of a compound stand elsewhere. T/C is the treated group as % of the vehicle group. Some doses have a count of surviving animals in place of a T/C: the source files T/C as zero there, which appears to mark a toxic dose or a test without result, not a measured value. Some survivor counts are full or nearly so, which does not show that the dose was tolerated: the source hardly ever lists a survival T/C far under the control, and the zero likely stands for such cases as well. Survivors were counted at the toxicity check, usually on the fifth day, unless a day is given; later deaths do not show. Schedule codes are those of the source, taken here to give the interval after Q, in days (D) or hours (H), and the number of doses after X. Some entries hold several experiments; the results are listed from low to high. Additions like (4×) give the number of equal values in this list. Where survival is the endpoint, the PubChem record calls one and a half times the control and up active, and a quarter to a half above the control has no call in these data; cut-offs in other NCI protocols can differ. Some T/C values carry the count of animals alive at the toxicity check (mostly the fifth day); where none is given, no animal had died by that day.
System: L1210 leukemia ip in BDF1 mice, survival T/C
Test: NCI In Vivo Anticancer Drug Screen. Data for tumor model L1210 Leukemia (intraperitoneal) in B6D2F1 (BDF1) mice
Conditions: T/C endpoint: mean survival time, higher T/C = longer survival
[1] = dose: 200.0 mg/kg/injection, schedule: Q04DX003 (ip), vehicle: Klucel (hydroxypropylcellulose) (HPC)
[2] = dose: 400.0 mg/kg/injection, schedule: Q04DX003 (ip), vehicle: Klucel (hydroxypropylcellulose) (HPC)
[3] = dose: 400.0 mg/kg/injection, schedule: Q01DX009 (ip), vehicle: saline with Tween-80
[4] = dose: 400.0 mg/kg/injection, schedule: Q04DX003 (ip), vehicle: saline
[5] = dose: 100.0 mg/kg/injection, schedule: Q01DX009 (ip), vehicle: saline
[6] = dose: 200.0 mg/kg/injection, schedule: Q04DX003 (ip), vehicle: saline with Tween-80
[7] = dose: 400.0 mg/kg/injection, schedule: Q04DX003 (ip), vehicle: saline with Tween-80
[8] = dose: 400.0 mg/kg/injection, schedule: Q01DX001 (ip), vehicle: saline
[9] = dose: 100.0 mg/kg/injection, schedule: Q01DX001 (ip), vehicle: saline
[10] = dose: 200.0 mg/kg/injection, schedule: Q01DX001 (ip), vehicle: saline

O=P(NCCCl)(Nc1ccccc1)Nc1ccccc1
survivor count [1]: 6 of 6 | survivor count [2]: 6 of 6

CC1CCCC(CN=Cc2cc([N+](=O)[O-])ccc2O)[N-]1.CC1CCCC(CN=Cc2cc([N+](=O)[O-])ccc2O)[N-]1.[Ni+2] (stereo not drawn)
survivor count [3]: 6 of 6

CCCCNC(C)(C)C(=O)c1cccs1
survivor count [4]: 0 of 6

CCOC(=O)N1CCC(=C(C#N)c2ccccc2)CC1
survivor count [2]: 1 of 6

COCNC(=S)N/N=C/c1ccccn1
T/C (dose: 25.0 mg/kg/injection, schedule: Q01DX009 (ip), vehicle: saline with Tween-80): 127 % of control

C#CC(=O)[O][Sn]([c]1ccccc1)([c]1ccccc1)[c]1ccccc1
survivor count (dose: 25.0 mg/kg/injection, schedule: Q01DX009 (ip), vehicle: Klucel (hydroxypropylcellulose) (HPC)): 0 of 6 | survivor count (dose: 50.0 mg/kg/injection, schedule: Q01DX009 (ip), vehicle: Klucel (hydroxypropylcellulose) (HPC)): 0 of 6 | survivor count (dose: 100.0 mg/kg/injection, schedule: Q01DX009 (ip), vehicle: Klucel (hydroxypropylcellulose) (HPC)): 0 of 6 | survivor count (dose: 100.0 mg/kg/injection, schedule: Q04DX002 (ip), vehicle: Klucel (hydroxypropylcellulose) (HPC)): 0 of 3 | survivor count (dose: 200.0 mg/kg/injection, schedule: Q04DX002 (ip), vehicle: Klucel (hydroxypropylcellulose) (HPC)): 0 of 3 | survivor count (dose: 400.0 mg/kg/injection, schedule: Q04DX002 (ip), vehicle: Klucel (hydroxypropylcellulose) (HPC)): 0 of 3

CC(=O)Nc1ccn(C2OC(CO)C(O)C2O)c(=O)n1 (stereo not drawn)
T/C (dose: 75.0 mg/kg/injection, schedule: Q01DX009 (ip), vehicle: saline): 133 % of control | T/C [5]: 131 % of control

O=C(OC(=O)C1CC1)C1CC1
survivor count [5]: 2 of 6 | survivor count (dose: 200.0 mg/kg/injection, schedule: Q01DX009 (ip), vehicle: saline): 0 of 6 | survivor count (dose: 200.0 mg/kg/injection, schedule: Q04DX003 (ip), vehicle: saline): 2 of 6 | survivor count [4]: 0 of 6

CC(C)(C)OC(=O)CNC(=O)C(Cc1ccccc1)NC(=O)C(N)CSC(c1ccccc1)(c1ccccc1)c1ccccc1 (stereo not drawn)
T/C (dose: 600.0 mg/kg/injection, schedule: Q01DX001 (ip), vehicle: carboxymethylcellulose (CMC)): 126 % of control | survivor count (dose: 600.0 mg/kg/injection, schedule: Q01DX001 (ip), vehicle: saline): 3 of 6

O=C(O)C1=C(C(=O)O)C2C=CC1N2Cc1ccccc1
survivor count (dose: 400.0 mg/kg/injection, schedule: Q01DX001 (ip), vehicle: other): 0 of 6

CCCCCCCCCCCC(=O)NC(=S)Nc1cccc2ccccc12
survivor count [2]: 6 of 6

O=[As](O)(CC(O)c1ccccc1)c1cccc(Cl)c1 (stereo not drawn)
survivor count (dose: 25.0 mg/kg/injection, schedule: Q04DX003 (ip), vehicle: saline with Tween-80): 6 of 6 | survivor count (dose: 50.0 mg/kg/injection, schedule: Q04DX003 (ip), vehicle: saline with Tween-80): 2 of 6 | survivor count (dose: 100.0 mg/kg/injection, schedule: Q04DX003 (ip), vehicle: saline with Tween-80): 0 of 6 (2×) | survivor count [6]: 0 of 6 | survivor count [7]: 0 of 6

Cc1nccc2c(C)c3sc4ccccc4c3cc12
survivor count (dose: 480.0 mg/kg/injection, schedule: Q01DX001 (ip), vehicle: alcohol): 0 of 4

CCN(CC)CCOB(OCCN(CC)CC)OCCN(CC)CC
survivor count (dose: 400.0 mg/kg/injection, schedule: Q04DX002 (ip), vehicle: saline): 3 of 6

O=C1NCCc2c1[nH]c1ccccc21
survivor count [4]: 1 of 6

CCC/C=C(C)/C=N\NC(=O)c1ccc[n+](C)c1
survivor count (dose: 200.0 mg/kg/injection, schedule: Q01DX009 (ip), vehicle: saline with Tween-80): 2 of 3

Nc1nc(N)c(N=Nc2ccc(C(=O)O)cc2)c(=O)[nH]1
survivor count [8]: 3 of 6

Nc1ccc2nc(N)nc(N)c2c1
T/C (dose: 100.0 mg/kg/injection, schedule: Q04DX003 (ip), vehicle: Klucel (hydroxypropylcellulose) (HPC)): 132 % of control [5 of 6 alive] | survivor count (dose: 150.0 mg/kg/injection, schedule: Q01DX009 (ip), vehicle: Klucel (hydroxypropylcellulose) (HPC)): 0 of 6 | survivor count [1]: 0 of 6 | survivor count [2]: 1 of 6

CCN(CC)C(=O)Oc1ccc(OC)cc1
survivor count [3]: 6 of 6

N#Cc1ccc[n+](CCc2c[nH]c3ccccc23)c1
survivor count (dose: 150.0 mg/kg/injection, schedule: Q01DX001 (ip), vehicle: saline): 3 of 6 | survivor count (dose: 300.0 mg/kg/injection, schedule: Q01DX001 (ip), vehicle: saline): 0 of 6

O/N=C/c1ccc(Cl)cc1
survivor count [8]: 2 of 4

CCC[CH2][Sn]([CH2]CCC)=[N]S(=O)(=O)c1ccc(Cl)c(C)c1
survivor count (dose: 40.0 mg/kg/injection, schedule: Q01DX001 (ip), vehicle: saline): 1 of 4 | survivor count (dose: 80.0 mg/kg/injection, schedule: Q01DX001 (ip), vehicle: saline): 0 of 4 | survivor count [9]: 0 of 4 | survivor count [10]: 0 of 4 | survivor count [8]: 0 of 4

CCOC(CN1CCOCC1)c1ccccc1 (stereo not drawn)
survivor count (dose: 400.0 mg/kg/injection, schedule: Q04DX002 (ip), vehicle: carboxymethylcellulose (CMC)): 2 of 3 and 4 of 6

c1ccc2c(c1)cc[n+]1c3ccccc3ccc21
survivor count (dose: 50.0 mg/kg/injection, schedule: Q01DX001 (ip), vehicle: saline): 0 of 6 | survivor count [9]: 0 of 6 | survivor count [10]: 0 of 6 | survivor count [8]: 0 of 6

CCCCCCCCC(=O)N(CCCC)CCCC
survivor count (dose: 400.0 mg/kg/injection, schedule: Q01DX009 (ip), vehicle: carboxymethylcellulose (CMC)): 2 of 3

CN1N(C(O)C(Cl)(Cl)Cl)C12CCCCC2 (stereo not drawn)
survivor count (dose: 12.0 mg/kg/injection, schedule: Q01DX009 (ip), vehicle: water): 0 of 6 | survivor count (dose: 25.0 mg/kg/injection, schedule: Q01DX009 (ip), vehicle: water): 0 of 6 | survivor count (dose: 50.0 mg/kg/injection, schedule: Q01DX001 (ip), vehicle: carboxymethylcellulose (CMC)): 3 of 6 | survivor count (dose: 50.0 mg/kg/injection, schedule: Q01DX009 (ip), vehicle: water): 1 of 6 | survivor count (dose: 100.0 mg/kg/injection, schedule: Q01DX001 (ip), vehicle: carboxymethylcellulose (CMC)): 2 of 6 | survivor count (dose: 100.0 mg/kg/injection, schedule: Q01DX009 (ip), vehicle: water): 0 of 6

CCCCCCCCCCCCOC(C(=O)O)(c1ccccc1)c1ccccc1
survivor count [6]: 6 of 6 | survivor count [7]: 1 of 6

CN/N=C1\CCC2C3CCc4cc(O)ccc4C3CCC12C (stereo not drawn)
survivor count (dose: 400.0 mg/kg/injection, schedule: Q01DX009 (ip), vehicle: Klucel (hydroxypropylcellulose) (HPC)): 6 of 6

Oc1ccccc1OCCOCCOc1ccccc1O
T/C (dose: 200.0 mg/kg/injection, schedule: Q04DX002 (ip), vehicle: other): 128 % of control | survivor count (dose: 400.0 mg/kg/injection, schedule: Q04DX002 (ip), vehicle: other): 3 of 3

Nc1ncnc2c1ncn2C1CC(CO)C(O)C1O (stereo not drawn)
survivor count (dose: 50.0 mg/kg/injection, schedule: Q01DX009 (ip), vehicle: carboxymethylcellulose (CMC)): 4 of 6

From PubChem BioAssay AID248 (DTP/NCI, 2004)
